In patent publication US20210371867A1 (SYSMEX, published 2021):
Results are given in words; binding and its absence hold for the method and conditions named. Some binding calls cover weakened binding; strength is not graded here. Tags and fused reporters may be left off the sequences shown.

Target: T1, human CD80/B7-1 protein (His tag) (human, UniProt P33681 35-242)
T1 construct: Recombinant His-tagged protein used as the antigen solution; also called antigen
T1 sequence (looked up): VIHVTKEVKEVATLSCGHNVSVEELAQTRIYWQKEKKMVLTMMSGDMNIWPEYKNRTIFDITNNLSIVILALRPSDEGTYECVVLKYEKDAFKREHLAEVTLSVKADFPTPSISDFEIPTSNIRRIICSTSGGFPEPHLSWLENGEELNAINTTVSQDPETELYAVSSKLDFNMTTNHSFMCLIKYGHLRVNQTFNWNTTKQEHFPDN
Experiment: sandwich chemiluminescence ELISA as in Test Example 1; comparison antibody as detection antibody

B1: ALP fusion antibody of Example 1 (Antibody Example 1-1), linker not stated: Fab of rabbit anti-CD80 antibody, Fd-linker-BIAPII (Fab, not shown: small tags and cut ends)
heavy (part 1 of 2): QSVEESGGRLVTPGTPLTLTCTASGFSLSNNAVSWVRQAPGEGLEWIGTISSNDNTYYATWAKGRFTISKTSTTVDLKITSPTTEDTATYFCAIYYYGYGYVFNLWGPGTLVTVSSGQPKAPSVFPLAPCCGDTPSSTVTLGCLVKGYLPEPVTVTWNSGTLTNGVRTFPSVRQSSGLYSLSSVVSVTSSSQPVTCNVAHPATNTKVDKTVAPSTCSKPT
heavy (part 2 of 2): LIPAEEENPAFWNRQAAQALDVAKKLQPIQTAAKNVILFLGDGMGVPTVTATRILKGQMNGKLGPETPLAMDQFPYVALSKTYNVDRQVPDSAGTATAYLCGVKGNYRTIGVSAAARYNQCNTTRGNEVTSVINRAKKAGKAVGVVTTTRVQHASPAGAYAHTVNRNWYSDADLPADAQKNGCQDIAAQLVYNMDIDVILGGGRMYMFPEGTPDPEYPDDASVNGVRKDKQNLVQEWQAKHQGAQYVWNRTALLQAADDSSVTHLMGLFEPADMKYNVQQDHTKDPTLAEMTEAALQVLSRNPRGFYLFVEGGRIDHGHHDGKAYMALTEAIMFDNAIAKANELTSELDTLILVTADHSHVFSFGGYTLRGTSIFGLAPGKALDSKSYTSILYGNGPGYALGGGSRPDVNGSTSEEPSYRQQAAVPLASETHGGEDVAVFARGPQAHLVHGVQEETFVAHIMAFAGCVEPYTDCNLPAPA
light: ELVMTQTPASVSEPVGGTVTINCQASEDIYSSLAWYQQKPGQRPKLLMYYASTLASGVPSRFKGSGSGTEFTLTISDLECADAATYYCQSYYLSSSSRYGNAFGGGTEVVVKGDPVAPTVLIFPPAADQVATGTVTIVCVANKYFPDVTVTWEVDGTTQTTGIENSKTPQNSADCTYNLSSTLTLTSTQYNSHKEYTCKVTQGTTSVVQSFIG
- binding: binds
